Taken from: PubChem BioAssay AID743121 (NCATS, 2013)

Purpose: 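Genes whose silencing strengthens cell killing by camptothecin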 (primary screen)
Cells: MDA-MB-231 cells, a human breast cancer line
Reagents: single siRNA against human genes, 20 nM siRNA (0.8 pmol per well)
Timing: 120 h (drug added 48 h after transfection, read 72 h later)
Treatment: camptothecin 20 nM (about EC30) for 72 h; vehicle 0.1% DMSO in parallel plates
Detection: 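CellTiter-Glo ATP signal, scaled to control siRNA as percent viability; sensitisation given as log2 of untreated divided by camptothecin-treated viability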
Reading the numbers: log2 vehicle/camptothecin viability: higher = stronger sensitisation to camptothecin; viability with camptothecin and viability without drug: higher = more viable cells
Call rule: 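Each gene scored by redundant siRNA activity (RSA) over its individual siRNA ratios; a gene is called active at p < 0.001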
In all, the deposit lists about 26,000 reagents; this is a part drawn at random. Of all reagents, 167 (0.63%) were called active. 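Calls are per gene from RSA p-values that are not deposited; an individual active-marked siRNA can sensitise only weakly.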 Reagents against one gene are numbered here. No sequences are given here.

The first 3 records as a preview:
| log2 vehicle/camptothecin viability | viability with camptothecin (% of control) | viability without drug (% of control) | Call | gene | reagent |
| --- | --- | --- | --- | --- | --- |
| -0.189 | 136 | 119 | inactive | CD63 (CD63 molecule) | 1 |
| -0.356 | 71.1 | 55.6 | inactive | CD63 (CD63 molecule) | 2 |
| -0.405 | 63.3 | 47.8 | inactive | CD63 (CD63 molecule) | 3 |

The listing, from the first entry:
| log2 vehicle/camptothecin viability | viability with camptothecin (% of control) | viability without drug (% of control) | Call | gene | reagent |
| --- | --- | --- | --- | --- | --- |
| -0.189 | 136 | 119 | inactive | CD63 (CD63 molecule) | 1 |
| -0.356 | 71.1 | 55.6 | inactive | CD63 (CD63 molecule) | 2 |
| -0.405 | 63.3 | 47.8 | inactive | CD63 (CD63 molecule) | 3 |
| 0.132 | 49 | 53.7 | inactive | CD63 (CD63 molecule) | 4 |
| 0.213 | 47.2 | 54.7 | inactive | CSF2RB (colony stimulating factor 2 receptor subunit beta) | 1 |
| -0.181 | 75.9 | 67 | inactive | CSF2RB (colony stimulating factor 2 receptor subunit beta) | 2 |
| -0.379 | 105 | 80.7 | inactive | CSF2RB (colony stimulating factor 2 receptor subunit beta) | 3 |
| 0.254 | 29.6 | 35.3 | inactive | CSF2RB (colony stimulating factor 2 receptor subunit beta) | 4 |
| -0.376 | 110 | 85 | inactive | OR2C3 (olfactory receptor family 2 subfamily C member 3) | 1 |
| -0.551 | 122 | 83.1 | inactive | OR2C3 (olfactory receptor family 2 subfamily C member 3) | 2 |
| -0.205 | 89 | 77.2 | inactive | OR2C3 (olfactory receptor family 2 subfamily C member 3) | 3 |
| -0.0328 | 97.9 | 95.7 | inactive | OR2C3 (olfactory receptor family 2 subfamily C member 3) | 4 |
| -0.314 | 98.3 | 79.1 | inactive | WWTR1 (WW domain containing transcription regulator 1) | 1 |
| -0.584 | 97.6 | 65.1 | inactive | WWTR1 (WW domain containing transcription regulator 1) | 2 |
| -0.116 | 53.1 | 48.9 | inactive | WWTR1 (WW domain containing transcription regulator 1) | 3 |
| -0.181 | 63.8 | 56.3 | inactive | WEE1 (WEE1 G2 checkpoint kinase) | 1 |
| 0.135 | 3.51 | 3.86 | inactive | WEE1 (WEE1 G2 checkpoint kinase) | 2 |
| 1.86 | 7.43 | 26.9 | inactive | WEE1 (WEE1 G2 checkpoint kinase) | 3 |
| -0.444 | 23.1 | 17 | inactive | WEE1 (WEE1 G2 checkpoint kinase) | 4 |
| -0.137 | 70.6 | 64.2 | inactive | CLECL1 (C-type lectin like 1) | 1 |
| -0.292 | 91.5 | 74.7 | inactive | CLECL1 (C-type lectin like 1) | 2 |
| -0.163 | 88.5 | 79.1 | inactive | CLECL1 (C-type lectin like 1) | 3 |
| -0.318 | 75.1 | 60.2 | inactive | CLECL1 (C-type lectin like 1) | 4 |
| -0.516 | 91.8 | 64.2 | inactive | ARSI (arylsulfatase family member I) | 1 |
| -0.0941 | 110 | 103 | inactive | ARSI (arylsulfatase family member I) | 2 |
| 0.302 | 76 | 93.8 | inactive | ARSI (arylsulfatase family member I) | 3 |
| -0.291 | 52 | 42.5 | inactive | ARSI (arylsulfatase family member I) | 4 |
| -0.168 | 90.9 | 80.9 | inactive | HTATIP2 (HIV-1 Tat interactive protein 2) | 1 |
| -0.0935 | 103 | 96.1 | inactive | HTATIP2 (HIV-1 Tat interactive protein 2) | 2 |
| -0.183 | 90.8 | 80 | inactive | HTATIP2 (HIV-1 Tat interactive protein 2) | 3 |
| 0.409 | 39.5 | 52.4 | inactive | MAP2K3 (mitogen-activated protein kinase kinase 3) | 1 |
| -0.689 | 65.7 | 40.8 | inactive | MAP2K3 (mitogen-activated protein kinase kinase 3) | 2 |
| -0.081 | 60.1 | 56.8 | inactive | MAP2K3 (mitogen-activated protein kinase kinase 3) | 3 |
| -0.328 | 49.5 | 39.4 | inactive | MAP2K3 (mitogen-activated protein kinase kinase 3) | 4 |
| -0.106 | 104 | 96.8 | inactive | BSCL2 (BSCL2 lipid droplet biogenesis associated, seipin) | 1 |
| -0.488 | 93.2 | 66.5 | inactive | BSCL2 (BSCL2 lipid droplet biogenesis associated, seipin) | 2 |
| -0.455 | 63.2 | 46.1 | inactive | BSCL2 (BSCL2 lipid droplet biogenesis associated, seipin) | 3 |
| -0.44 | 92.3 | 68 | inactive | BSCL2 (BSCL2 lipid droplet biogenesis associated, seipin) | 4 |
| 0.0475 | 85.1 | 88 | inactive | DGKI (diacylglycerol kinase iota) | 1 |
| -0.101 | 45.1 | 42 | inactive | DGKI (diacylglycerol kinase iota) | 2 |
| 0.109 | 55.5 | 59.9 | inactive | DGKI (diacylglycerol kinase iota) | 3 |
| -0.00285 | 57.7 | 57.6 | inactive | DGKI (diacylglycerol kinase iota) | 4 |
| -0.335 | 77.8 | 61.7 | inactive | PDGFC (platelet derived growth factor C) | 1 |
| -0.204 | 27.9 | 24.2 | inactive | PDGFC (platelet derived growth factor C) | 2 |
| -0.0529 | 80.9 | 78 | inactive | PDGFC (platelet derived growth factor C) | 3 |
| -0.181 | 80.3 | 70.9 | inactive | PDGFC (platelet derived growth factor C) | 4 |
| 0.155 | 68.8 | 76.6 | inactive | RALA (RAS like proto-oncogene A) | 1 |
| -0.0701 | 72.1 | 68.7 | inactive | RALA (RAS like proto-oncogene A) | 2 |
| -0.021 | 106 | 105 | inactive | RALA (RAS like proto-oncogene A) | 3 |
| 0.0507 | 99 | 103 | inactive | RALA (RAS like proto-oncogene A) | 4 |
| -0.525 | 114 | 79.4 | inactive | TGFBR3 (transforming growth factor beta receptor 3) | 1 |
| 0.35 | 58.2 | 74.2 | inactive | TGFBR3 (transforming growth factor beta receptor 3) | 2 |
| -0.142 | 56.8 | 51.5 | inactive | TGFBR3 (transforming growth factor beta receptor 3) | 3 |
| 0.414 | 63.9 | 85.2 | inactive | TGFBR3 (transforming growth factor beta receptor 3) | 4 |
| 0.0983 | 46.8 | 50.1 | inactive | ABCA7 (ATP binding cassette subfamily A member 7) | 1 |
| -0.0288 | 96.7 | 94.8 | inactive | ABCA7 (ATP binding cassette subfamily A member 7) | 2 |
| -0.383 | 89.5 | 68.6 | inactive | ABCA7 (ATP binding cassette subfamily A member 7) | 3 |
| 0.621 | 70.9 | 109 | inactive | ABCA7 (ATP binding cassette subfamily A member 7) | 4 |
| -0.155 | 7.73 | 6.94 | inactive | CD47 (CD47 molecule) | 1 |
| -0.163 | 118 | 105 | inactive | CD47 (CD47 molecule) | 2 |
| -0.121 | 62 | 57 | inactive | CD47 (CD47 molecule) | 3 |
| -0.422 | 112 | 83.5 | inactive | CD47 (CD47 molecule) | 4 |
| -0.138 | 96.3 | 87.6 | inactive | FBXO34 (F-box protein 34) | 1 |
| 1.01 | 32.2 | 64.6 | inactive | FBXO34 (F-box protein 34) | 2 |
| 0.0124 | 78.5 | 79.2 | inactive | FBXO34 (F-box protein 34) | 3 |
| -0.282 | 105 | 86.7 | inactive | FBXO34 (F-box protein 34) | 4 |
| -0.644 | 74.4 | 47.6 | inactive | EGFL6 (EGF like domain multiple 6) | 1 |
| 0.611 | 35.7 | 54.5 | inactive | EGFL6 (EGF like domain multiple 6) | 2 |
| -0.205 | 101 | 87.7 | inactive | EGFL6 (EGF like domain multiple 6) | 3 |
| 0.0872 | 96.3 | 102 | inactive | EGFL6 (EGF like domain multiple 6) | 4 |
